PubChem BioAssay AID1347075 (National Center for Advancing Translational Sciences (NCATS), 2019)
The whole screen tested about 400,000 compounds, of which about 5,500 (1.4%) were called active. The inconclusive results got no clear call from the source; some entries with a clear call stand among them for comparison. The call rests on the fitted dose curve; in most records, active means well fitted cell-killing curve with a large enough effect; inconclusive means small, poorly fitted or top-dose-only effect, or effect the other way; inactive means flat fitted curve, though single readings scatter. Potencies beside an inconclusive call are fits to weak or partial responses and may not hold up.

Experiment: qHTS assay for MDR1-selective chemotherapeutics: Primary screen using the parental adenocarcinoma cell KB-3-1; further: nearly all actives have a fitted effect of over 60% in size
Settings: KB-3-1 viability, CellTiter-Glo ATP luminescence, 72 h; series mostly up to 46.1 µM
How it was run: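 KB-3-1 parental drug-naive adenocarcinoma cells in DMEM/10% FBS, incubated 72 h at 37 C with pin-transferred compounds across a concentration series. Viability by CellTiter-Glo luminescence; concentration-response curves fitted after normalization.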
Potency means the concentration at half of the fitted maximal effect.

Row | Compound | Potency
1 | O=C(C[n+]1ccccc1Br)c1ccc2c(c1)CCCC2 | inconclusive: 8.2 µM [rising, partial curve, poor fit]
2 | NC(c1csc(Nc2ccc(C(=O)c3ccccc3)cc2)n1)c1ccccc1Cl (stereo not drawn) | inconclusive: 20.6 µM [cytotoxic, single point]
3 | CC(C)c1cc(CN2C(C)COCC2C)cc(C(C)C)c1O (stereo not drawn) | inconclusive: 18.4 µM [cytotoxic, single point]
4 | O=C(C#Cc1ccccc1)Nc1ccc(F)cc1 | inconclusive: 29.1 µM [cytotoxic, single point]
5 | CC1CCC2(CC1)NC(=O)N(NC(=O)CCc1c[nH]c3ccccc13)C2=O (stereo not drawn) | inconclusive: 14.6 µM [rising, partial curve]
6 | COc1ccc(-c2sc(C(=O)c3ccc(Cl)cc3Cl)cc2CC(=O)O)cc1 | inconclusive: 20.6 µM [cytotoxic, partial curve, poor fit]
7 | Clc1cccc(Cl)c1C1Nc2cccc3cccc(c23)N1 | inconclusive: 18.4 µM [cytotoxic, single point]
8 | CCOC(=O)c1sc(NC(NC(=O)c2ccco2)(C(=O)OC)C(F)(F)F)nc1C (stereo not drawn) | inconclusive: 7.31 µM [cytotoxic, partial curve, poor fit]
9 | CC(=O)OC1CCC2C3CCC4OC(=O)CCC4C3CCC12C (stereo not drawn) | inconclusive: 29.1 µM [rising, single point]
10 | CN(Cc1ccc(OC(F)F)cc1)C(=O)c1cccc(S(=O)(=O)N2CCN(c3ccccc3)CC2)c1 | active: 7.31 µM
11 | CC1(C(=O)Nc2ccc3c(c2)OCCO3)CCN1Cc1ccc2ccccc2c1 (stereo not drawn) | inconclusive: 29.1 µM [cytotoxic, single point]
12 | COc1ccc(NC(=O)COc2ccc(C(=O)OCC(=O)N(C(C)C)C(C)C)cc2OC)cc1 | inactive
13 | COc1ccccc1CC(O)CC1c2c(cc3c(c2OC)OCO3)CCN1C (stereo not drawn) | inconclusive: 8.2 µM [cytotoxic, partial curve, poor fit]
14 | Cn1nc(-c2ccc(F)cc2)nc2c(=O)n(C)c(=O)nc1-2 | active: 2.91 µM
15 | CCN(CC)CCN(C(=O)c1ccc2c(c1)CCCC2)c1nc2c(C)cccc2s1 | inconclusive: 32.6 µM [cytotoxic, partial curve, poor fit]
16 | Cc1ccc2c(c1)N(C(=O)c1ccc(F)cc1)C(C)(C)CC2(C)c1ccccc1 (stereo not drawn) | inconclusive: 29.1 µM [cytotoxic, single point]
17 | C=C1C(=O)[C@]23C[C@H]1CCC2[C@]1(C)C(=O)CC[C@@](C)(C(=O)O)C1C[C@@H]3O (stereo partly drawn) | inconclusive: 29.1 µM [cytotoxic, single point]
18 | CCc1c(-c2ccccc2)nc2sc3c(c2c1N)CCCC3 | inconclusive: 29.1 µM [cytotoxic, single point]
19 | CNC(=S)Nc1cccc(-c2cnc3ccccc3n2)c1 | inconclusive: 32.6 µM [cytotoxic, single point]
20 | CC(=O)Nc1ccc(S(=O)(=O)NNC(=O)COc2cccc3ccccc23)cc1 | inconclusive: 20.6 µM [cytotoxic, single point]
21 | CCOC(=O)C1(Cc2cccc(OC)c2)CCN(C/C=C/c2ccccc2)CC1 | inactive
22 | CN(C)CCCNc1c2ccccc2nc2ccccc12 | active: 1.64 µM
23 | O=C(O)CSc1ccn(Cc2ccccc2)c1 | inactive

Row | Compound | Potency
24 | O=C(NCCCn1ccnc1)c1cc2ccccc2oc1=O | inactive
25 | Cc1ccc(NC(=O)Cn2cc(S(=O)(=O)Cc3ccccc3)c3ccccc32)cc1C | inconclusive: 18.4 µM [cytotoxic, single point]
26 | Cc1nc(N2CCN(Cc3nc4ccccc4[nH]3)CC2)c2oc3ccccc3c2n1 | inconclusive: 29.1 µM [cytotoxic, single point]
27 | C=CCc1cccc(/C=N/NC(=O)CNc2ccccc2OC)c1O | inconclusive: 23.1 µM [cytotoxic, single point]
28 | CCc1ccc(S(=O)(=O)c2cn(C)c3ccc(C)cc3c2=O)cc1 | inactive
29 | Cc1c(N=Cc2cc(Br)cc(Br)c2O)cccc1C(=O)O | inconclusive: 18.4 µM [cytotoxic, single point]
30 | NC(=O)c1nsc(C(=O)N(c2ccccc2F)C(C(=O)NCc2ccccc2)c2ccc(O)cc2)c1N (stereo not drawn) | inconclusive: 29.1 µM [cytotoxic, single point]
31 | COc1ccc(N(CC(=O)Nc2cc(Cl)ccc2OC)S(=O)(=O)c2c(C)noc2C)cc1 | active: 4.61 µM
32 | Cc1noc2ncnc(N3CCCC3)c12 | inactive
33 | CCc1cnc(Nc2nc(C(N)Cc3ccc(F)cc3)cs2)nc1 (stereo not drawn) | inconclusive: 29.1 µM [cytotoxic, single point]
34 | COc1cc(C(=O)O/N=C2/C=C(C)C(=O)C=C2C)cc(OC)c1OC | inactive
35 | COc1cc(CCNC(=O)c2ccccc2NC(=O)C2=C(C)OCCS2)cc(OC)c1OC | inconclusive: 0.184 µM [cytotoxic, full curve, poor fit]
36 | O=S(=O)(CS(=O)(=O)c1ccccc1)c1ccccc1 | inconclusive: 32.6 µM [rising, single point]
37 | Cc1cc(C)cc(-n2ncc3c2CCCC3NC(=O)c2cc(C)n(C)n2)c1 (stereo not drawn) | inconclusive: 29.1 µM [cytotoxic, single point]
38 | CCC1(c2ccc(F)cc2)NC(=O)N(CC(=O)Nc2cccc(S(=O)(=O)N3CCCCC3)c2)C1=O (stereo not drawn) | inconclusive: 20.6 µM [cytotoxic, single point]
39 | O=C(c1cc(-c2ccccc2Cl)nc2ccccc12)N1CCOCC1 | inactive
40 | CCCN1CCN(S(=O)(=O)c2c(C)[nH]c(C)c2C(=O)N2CCCCC2)CC1 | inconclusive: 2.59 µM [cytotoxic, full curve, poor fit]
41 | COc1ccccc1Nc1nc(N)nc(CSc2nc(C)cc(C)n2)n1 | inconclusive: 6.51 µM [rising, partial curve]
42 | O=C(NCc1ccccc1Cl)C1CCCN1S(=O)(=O)c1ccccc1F (stereo not drawn) | inactive
43 | COc1ccccc1NC(=O)C(=O)N/N=C(\C)CC(=O)Nc1ccc(OCc2ccccc2)cc1 | inconclusive: 16.4 µM [cytotoxic, single point]
44 | COc1cc(C(=O)Nc2ccc(Oc3ncnc4sc(-c5ccccc5)cc34)cc2)cc(OC)c1OC | inactive
45 | COc1cccc(/C=N/Nc2nccnc2Cl)c1O | inconclusive: 2.59 µM [cytotoxic, full curve]
46 | COc1ccc(-c2[nH]ncc2Oc2ccccc2OC)c(O)c1 | inactive

Row | Compound | Potency
47 | O=C(CN(CCc1ccccc1)S(=O)(=O)c1ccc(Br)cc1)N/N=C/c1ccccc1C(=O)O | inactive
48 | CCn1c(SCc2ccccc2)nnc1-c1cccs1 | inconclusive: 16.4 µM [cytotoxic, partial curve, poor fit]
49 | CCOc1ccc(S(=O)(=O)N2CCOCC2)c2ccccc12 | inactive
50 | COc1ccc(-n2ccnc(NCCc3ccc(S(N)(=O)=O)cc3)c2=O)cc1Cl | inactive
51 | CC(C)c1ccc(NC(=O)c2cc(S(=O)(=O)NCCc3ccccc3)ccc2F)cc1 | inconclusive: 29.1 µM [cytotoxic, single point]
52 | Cc1cccn2c(=O)cc(COc3cccc(NC(=O)Nc4cccc(Cl)c4)c3)nc12 | inactive
53 | COc1cc2ccccc2cc1C(=O)Nc1ccc(C)cc1 | inconclusive: 29.1 µM [cytotoxic, single point]
54 | CCc1nc2ccc(C(=O)NC3CCC(C)CC3)cc2nc1CC (stereo not drawn) | inconclusive: 29.1 µM [cytotoxic, single point]
55 | C[C@H](NC(=O)OC(C)(C)C)c1nnc(SCc2ccc(Cl)cc2Cl)o1 | inconclusive: 29.1 µM [cytotoxic, single point]
56 | Cc1ccc2[nH]c3c(c2c1)CN(C(=O)CN1c2ccc(F)cc2CCC1C)CC3 (stereo not drawn) | inconclusive: 18.4 µM [cytotoxic, single point]
57 | C/C(O)=C(\C#N)P(=O)(c1ccccc1)c1ccccc1 | inactive
58 | COc1ccc(C(C)C)cc1S(=O)(=O)NCCc1c(C)[nH]c2c(Cl)cccc12 | inconclusive: 29.1 µM [cytotoxic, single point]
59 | O=C1C(Nc2cccc(O)c2)=C(N2CCCCC2)C(=O)c2ccccc21 | inconclusive: 9.2 µM [cytotoxic, partial curve, poor fit]
60 | NC(CCc1ccccc1)c1csc(Nc2ccc(C(=O)c3ccccc3)cc2)n1 (stereo not drawn) | inconclusive: 29.1 µM [cytotoxic, single point]
61 | CCN1C(=NCCCCO)N[C@@H](c2cccc(F)c2)C(C(=O)OC)=C1C | inactive
62 | COc1cccc(/C(O)=C/c2nc3ccc(C(=O)NCCc4cccc(C)c4)cc3[nH]c2=O)c1 | inconclusive: 23.1 µM [cytotoxic, partial curve, poor fit]
63 | O=C(Nc1ccc(-c2nc3ccccc3[nH]2)cc1)c1ccc(Cl)c(Cl)c1 | inconclusive: 29.1 µM [cytotoxic, single point]
64 | Cc1nc2ccc(NC(=O)c3cc(S(=O)(=O)N(C)c4ccccc4)ccc3Cl)cc2s1 | inconclusive: 25.9 µM [cytotoxic, partial curve]
65 | Cc1ccc(OC(C)C(=O)N2CCN(CCc3ccccn3)CC2)cc1C (stereo not drawn) | inconclusive: 18.4 µM [rising, single point]
66 | Cc1ccc(NC(=O)CNCc2ccc(Cl)cc2Cl)cc1S(=O)(=O)N(C)C | inconclusive: 29.1 µM [cytotoxic, single point]
67 | O=C(Cn1ncc(Cl)c(Cl)c1=O)NC(=O)NC1CCCCC1 | inconclusive: 29.1 µM [cytotoxic, single point]
68 | CC(/C=N/n1c(-c2ccc(Cl)cc2)n[nH]c1=S)=C\c1ccco1 | inconclusive: 18.4 µM [cytotoxic, single point]

Copied from above, entries 52–54
Row | Compound | Potency
52 | Cc1cccn2c(=O)cc(COc3cccc(NC(=O)Nc4cccc(Cl)c4)c3)nc12 | inactive
53 | COc1cc2ccccc2cc1C(=O)Nc1ccc(C)cc1 | inconclusive: 29.1 µM [cytotoxic, single point]
54 | CCc1nc2ccc(C(=O)NC3CCC(C)CC3)cc2nc1CC (stereo not drawn) | inconclusive: 29.1 µM [cytotoxic, single point]
